The text below walks through data of PMC3546041.

In test [1] the target is RFP-tagged full-length MBD2 (Sf9) (mouse) (UniProt Q9Z2E1). Description: pull-down; MBD2R immobilised on beads; MBD2G in solution; proteins extracted with 1 M NaCl lysis buffer; PBS plus 110 mM NaCl, 0.05% NP-40; with or without ethidium bromide 10 ug/ml; Western blot with anti GFP; only the target purified. A general note: Immunoblotting shows a protein as a band on a membrane.

Test [2] has as its target T1, RFP-fused MBD2 NH2-terminal domain (amino acids 1-152) (Sf9) (mouse) (UniProt Q9Z2E1).
T1 sequence: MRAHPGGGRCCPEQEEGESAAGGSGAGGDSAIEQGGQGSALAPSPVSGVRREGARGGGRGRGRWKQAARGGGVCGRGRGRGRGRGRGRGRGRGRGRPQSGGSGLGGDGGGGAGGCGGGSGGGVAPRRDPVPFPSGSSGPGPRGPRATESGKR
Description: pull-down; Cherry- or RFP-fused MBD2 constructs immobilised on RBP-sepharose beads; full-length MBD2G or MeCP2G in solution; proteins extracted with 1 M NaCl lysis buffer; PBS plus 125 mM NaCl, 0.05% NP-40; Western blot with anti GFP; only the target purified.

In test [3] the target is GFP-fused full-length MBD2 (mammalian cells) (mouse) (UniProt Q9Z2E1). Nature of the test: co-IP; HEK293-EBNA cells co-expressing GFP- and RFP-tagged proteins; GBP-bound beads; 274 mM NaCl; Western blot with anti RFP.
Test [4] shares this target. Description: fluorescent 3-hybrid assay; C2C12 mouse cells triple transfected with GBP-laminB1, a GFP-labelled bait tethered to the nuclear lamina and an RFP-fused prey; co-localization of GFP and RFP signals in fixed cells.

Results are given in words; binding and its absence hold for the method and conditions named. For some of these results: In cells and extracts the contact can be indirect. Some binding calls cover weakened binding; strength is not graded here. For some of these results: Sequences can lack the tags named with a protein.

Take “GFP-tagged full-length MBD2 (Sf9) (from UniProt Q9Z2E1 1-414)”: the binding result in test [1] and in test [2] was “binds” throughout.

Consider “RFP-fused full-length MBD2 (mammalian cells) (from UniProt Q9Z2E1 1-414)”, for which the binding result in test [3] and in test [4] was “binds” throughout.
